The assay deals with GIGANTEA with C-terminal 3xFLAG-6xHis tag (GI‐3F6H) (Arabidopsis thaliana) (UniProt Q9SQI2). The assay is described as follows: affinity purification with mass spectrometry; time series study: tandem affinity purification (FLAG and His tags) of GI-3F6H from rosettes grown in short days, six time points plus ZT31; on-bead digest, label-free quantitation; WT plants as control.

Amino acid sequences for entries named in this document (tags omitted).
UniProt Q9SQI2: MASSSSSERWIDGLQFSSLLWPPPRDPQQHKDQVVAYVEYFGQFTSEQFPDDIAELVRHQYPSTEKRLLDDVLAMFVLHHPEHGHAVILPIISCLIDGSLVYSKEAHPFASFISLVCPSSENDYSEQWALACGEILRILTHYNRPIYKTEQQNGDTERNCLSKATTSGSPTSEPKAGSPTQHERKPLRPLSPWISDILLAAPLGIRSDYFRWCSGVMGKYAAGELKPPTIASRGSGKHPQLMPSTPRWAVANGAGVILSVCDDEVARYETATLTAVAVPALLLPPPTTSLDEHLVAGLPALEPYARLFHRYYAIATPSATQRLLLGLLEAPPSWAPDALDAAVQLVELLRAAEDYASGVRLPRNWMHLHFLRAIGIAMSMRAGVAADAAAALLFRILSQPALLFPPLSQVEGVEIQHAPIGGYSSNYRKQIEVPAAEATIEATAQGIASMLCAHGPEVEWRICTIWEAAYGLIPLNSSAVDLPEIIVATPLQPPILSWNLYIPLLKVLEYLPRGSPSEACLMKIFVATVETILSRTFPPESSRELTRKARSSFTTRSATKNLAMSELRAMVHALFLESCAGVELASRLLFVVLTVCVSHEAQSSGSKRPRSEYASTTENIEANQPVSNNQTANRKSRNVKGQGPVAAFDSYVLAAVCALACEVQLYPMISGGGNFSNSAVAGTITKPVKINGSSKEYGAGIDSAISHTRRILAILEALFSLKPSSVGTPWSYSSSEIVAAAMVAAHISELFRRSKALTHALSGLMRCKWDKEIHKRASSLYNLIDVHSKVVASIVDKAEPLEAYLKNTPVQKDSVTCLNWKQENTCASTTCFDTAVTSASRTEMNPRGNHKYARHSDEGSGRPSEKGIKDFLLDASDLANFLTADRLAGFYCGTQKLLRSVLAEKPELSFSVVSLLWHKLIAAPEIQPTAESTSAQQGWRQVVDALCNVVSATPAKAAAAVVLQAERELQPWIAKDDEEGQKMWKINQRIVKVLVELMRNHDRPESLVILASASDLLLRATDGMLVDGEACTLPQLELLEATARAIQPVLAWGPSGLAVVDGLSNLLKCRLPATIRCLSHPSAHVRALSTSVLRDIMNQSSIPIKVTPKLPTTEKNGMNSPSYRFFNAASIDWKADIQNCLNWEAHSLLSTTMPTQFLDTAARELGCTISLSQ

Results are given in words; binding and its absence hold for the method and conditions named. In cells and extracts the contact can be indirect. These calls come from enrichment with a bait or labelling near it, and not all partners need be listed.

B1: CYCLING DOF FACTOR 3 (CDF3) (protein, UniProt Q8LFV3 1-448)
chain: MMMETRDPAIKLFGMKIPFPSVFESAVTVEDDEEDDWSGGDDKSPEKVTPELSDKNNNNCNDNSFNNSKPETLDKEEATSTDQIESSDTPEDNQQTTPDGKTLKKPTKILPCPRCKSMETKFCYYNNYNINQPRHFCKACQRYWTAGGTMRNVPVGAGRRKNKSSSSHYRHITISEALEAARLDPGLQANTRVLSFGLEAQQQHVAAPMTPVMKLQEDQKVSNGARNRFHGLADQRLVARVENGDDCSSGSSVTTSNNHSVDESRAQSGSVVEAQMNNNNNNNMNGYACIPGVPWPYTWNPAMPPPGFYPPPGYPMPFYPYWTIPMLPPHQSSSPISQKCSNTNSPTLGKHPRDEGSSKKDNETERKQKAGCVLVPKTLRIDDPNEAAKSSIWTTLGIKNEAMCKAGGMFKGFDHKTKMYNNDKAENSPVLSANPAALSRSHNFHEQI
Turning to B1, the binding entry is reported as “binds”.

B2: GRF6 (protein, UniProt P48349 1-248)
chain: MAATLGRDQYVYMAKLAEQAERYEEMVQFMEQLVTGATPAEELTVEERNLLSVAYKNVIGSLRAAWRIVSSIEQKEESRKNDEHVSLVKDYRSKVESELSSVCSGILKLLDSHLIPSAGASESKVFYLKMKGDYHRYMAEFKSGDERKTAAEDTMLAYKAAQDIAAADMAPTHPIRLGLALNFSVFYYEILNSSDKACNMAKQAFEEAIAELDTLGEESYKDSTLIMQLLRDNLTLWTSDMQEQMDEA
Regarding B2, the binding entry is given as “binds”.

B3: TCP‐1/cpn60 chaperonin (AT3G03960) (protein, UniProt Q94K05 1-549)
chain: MVGMSMQPYGIQSMLKEGYRHLSGLDEAVIKNIEACKELSTITRTSLGPNGMNKMVINHLDKLFVTNDAATIVNELEIQHPAAKLLVLAAKAQQEEIGDGANLTISFAGELLQNAEELIRMGLHPSEIISGYTKAVSKAVEILEQLVETGSETMDVRNKDEVISRMRAAVASKQFGQEEIICSLVTDACIQVCPKNPTNFNVDNVRVSKLLGGGLHNSCIVRGMVLKSDAVGSIKRMEKAKVAVFAGGVDTTATETKGTVLIHSAEQLENYAKTEEAKVEELIKAVAESGAKVIVSGGSIGEMALHFCERYKIMVLKISSKFELRRFCRTAGAVAHLKLSRPSPEDLGYVDSISVEEIGGVTVTIARNEEGGNSISTVVLRGSTDSILDDLERAVDDGVNTYKAMCRDSRIVPGAAATEIELAQRLKEYANAEIGLDKYAITKYAESFEFVPKTLADNAGLNAMEIIAALYTGHGSGNTKLGIDLEEGACKDVSETKVWDLFATKLFALKYASDAACTVLRVDQIIMAKPAGGPRRDAAQAAGAGAEED
Turning to B3, the binding result was “binds”.

B4: Vacuolar ATP synthase subunit H (protein, UniProt Q9LX65 1-441)
chain: MDQAELSIEQVLKRDIPWETYMNTKLVSAKGLQLLRRYDKKPESARAQLLDEDGPAYVHLFVSILRDIFKEETVEYVLALIYEMLSANPTRARLFHDESLANEDTYEPFLRLLWKGNWFIQEKSCKILAWIISARPKAGNAVIGNGIDDVLKGLVEWLCAQLKQPSHPTRGVPIAISCLSSLLKEPVVRSSFVQADGVKLLVPLISPASTQQSIQLLYETCLCIWLLSYYEPAIEYLATSRTMQRLTEVVKHSTKEKVVRVVILTFRNLLPKGTFGAQMVDLGLPHIIHSLKTQAWSDEDLLDALNQLEEGLKDKIKKLSSFDKYKQEVLLGHLDWNPMHKETNFWRENVTCFEENDFQILRVLLTILDTSSDPRSLAVACFDISQFIQYHAAGRVIVADLKAKERVMKLINHENAEVTKNAILCIQRLLLGAKYASFLQA
In the case of B4, the binding result was “binds”.

B5: MS2 (protein, UniProt Q9SRV5 1-765)
chain: MASHIVGYPRMGPKRELKFALESFWDGKSSADDLQKVSADLRSDIWKQMSAAGIKYIPSNTFSHYDQVLDTTAMLGAVPSRYGFTSGEIGLDVYFSMARGNASVPAMEMTKWFDTNYHYIVPELGPEVKFSYASHKAVNEYKEAKALGVETVPVLVGPVSYLLLSKLAKGVDKSFDLLSLLPKILPVYKEVIAELKAAGASWIQLDEPLFVMDLEGHKLQAFSGAYAELESTLSGLNVLVETYFADIPAEAYKTLTSLKGVTAFGFDLVRGTKTIDLIKSGFPQGKYLFAGVVDGRNIWANDLAASLITLQSLEGVVGKDKLVVSTSCSLLHTAVDLINETKLDAEIKSWLAFAAQKVVEVDALAKALAGQTNESFFTANADALSSRRSSPRVTNESVQKAAAALKGSDHRRTTEVSARLDAQQKKLNLPILPTTTIGSFPQTVELRRVRREYKAKKISEEDYVKAIKEEIKKVVDIQEDLDIDVLVHGEPERNDMVEYFGEQLSGFAFTANGWVQSYGSRCVKPPVIYGDVSRPKPMTVFWSSTAQSMTKRPMKGMLTGPVTILNWSFVRNDQPRHETCYQIALAIKDEVEDLEKGGIGVIQIDEAALREGLPLRKAEHSFYLDWAVHSFRITNCGVQDSTQIHTHMCYSNFNDIIHSIIDMDADVITIENSRSDEKLLSVFREGVKYGAGIGPGVYDIHSPRIPSTDEIADRINKMLAVLEQNILWVNPDCGLKTRKYTEVKPALKAMVDAAKLIRSQLGSAK
On to B5, for which the binding entry is “binds”.

B6: ALDH3F1 (protein, UniProt Q70E96 1-484)
chain: MEAMKETVEESLREMRETFASGRTRSLKWRKAQIGAIYEMVKDNEDKICNALFQDLGKHSTEAFRDELGVVLRTATVAINCLDKWAVPKHSKLPLLFYPAKGKVISEPYGTVLVLSSWNFPISLSLDPLIGAIAAGNTVLLKSSELSPNASAFLAKTIPAYLDTKAIKVIEGGPDVATILLQHQWDKIFFTGSPKIGRIIMAAAAQHLTPVTLELGGKCPTIVDHHTISKNIKSVVKRIAGGKWGSCNGQACISVDYVLIEKSFAPTLIDMLKPTIKSFFGENPKESGCLSRIANKHHVQRLSRLLSDPRVQASIVYGGSIDEDKLYVEPTILLDPPLDSEIMNEEIFGPILPIITVRDIQESIGIINTKPKPLAIYAFTNDENLKTRILSETSSGSVTFNDVMIQYMCDALPFGGVGESGIGRYHGKYSFDCFSHEKAIMEGSLGMDLEARYPPWNNFKLTFIRLAFREAYFKLILLMLGLKR
Turning to B6, the binding entry is “binds”.

B7: RHM1 (protein, UniProt Q9SYM5 1-669)
chain: MASYTPKNILITGAAGFIASHVANRLIRSYPDYKIVVLDKLDYCSNLKNLNPSKHSPNFKFVKGDIASADLVNHLLITEGIDTIMHFAAQTHVDNSFGNSFEFTKNNIYGTHVLLEACKVTGQIRRFIHVSTDEVYGETDEDALVGNHEASQLLPTNPYSATKAGAEMLVMAYGRSYGLPVITTRGNNVYGPNQFPEKLIPKFILLAMRGQVLPIHGDGSNVRSYLYCEDVAEAFEVVLHKGEVGHVYNIGTKKERRVNDVAKDICKLFNMDPEANIKFVDNRPFNDQRYFLDDQKLKKLGWSERTTWEEGLKKTMDWYTQNPEWWGDVSGALLPHPRMLMMPGGRHFDGSEDNSLAATLSEKPSQTHMVVPSQRSNGTPQKPSLKFLIYGKTGWIGGLLGKICDKQGIAYEYGKGRLEDRSSLLQDIQSVKPTHVFNSAGVTGRPNVDWCESHKTETIRANVAGTLTLADVCREHGLLMMNFATGCIFEYDDKHPEGSGIGFKEEDTPNFTGSFYSKTKAMVEELLKEYDNVCTLRVRMPISSDLNNPRNFITKISRYNKVVNIPNSMTVLDELLPISIEMAKRNLKGIWNFTNPGVVSHNEILEMYRDYINPEFKWANFTLEEQAKVIVAPRSNNEMDASKLKKEFPELLSIKESLIKYAYGPNKKT
In the case of B7, the binding entry is listed as “binds”.

B8: HAP13 (protein, UniProt O22715 1-428)
chain: MAGAASALFLLDIKGRVLVWRDYRGDVSAAQAERFFTKLIEKEGDSQSNDPVAYDNGVTYMFVQHSNVYLMIASRQNCNAASLLFFLHRVVDVFKHYFEELEEESLRDNFVVVYELLDEMMDFGYPQYTEARILSEFIKTDAYRMEVTQRPPMAVTNAVSWRSEGIQYKKNEVFLDVIENVNILVNSNGQIVRSDVVGALKMRTYLTGMPECKLGLNDRVLLEAQGRATKGKAIDLEDIKFHQCVRLARFENDRTISFIPPDGAFDLMTYRLSTQVKPLIWVEAQIESHSRSRVEMLIKARSQFKERSTATNVEIELPVPTDASNPTVRTSLGSASYAPEKDALVWKIKSFPGNKEYMLRAEFHLPSITAEEATPERKAPIRVKFEIPYFTVSGIQVRYLKIIEKSGYQALPWVRYITMAGEYELRLV
For B8, the binding entry is listed as “binds”.

The record behind these values is PMC6373471.
